Results are given in words; binding and its absence hold for the method and conditions named. For part of these data: In cells and extracts the contact can be indirect. Some entries that bind do so weakly or less than the wild type. For part of these data: Tags and fused reporters may be left off the sequences shown. Blank lines part the entries; values can stand above or below the molecule they belong to.
Assays:
[1] = biological target: ADAR2 (FLAG-ADAR2 and HA-ADAR2 in U251 cells) (UniProt P78563); assay: co-IP; U251 cells, HA-ADAR2 coupled to FLAG-ADAR2, without or with SNORD113-3 overexpression
[2] = biological target: ADAR2 (FLAG-ADAR2 and HA-ADAR2 co-expressed in 293 T cells) (UniProt P78563); assay: co-IP; two-step: 293 T cells with FLAG-ADAR2, HA-ADAR2 and SNORD113-3; precipitated with anti-FLAG antibody, eluted with FLAG peptide, then precipitated with anti-HA antibody
[3] = biological target: ADAR2 (FLAG-ADAR2 and HA-ADAR2 co-expressed in 293 T cells) (UniProt P78563); assay: co-IP; 293 T cells overexpressing FLAG-ADAR2 and HA-ADAR2, without or with overexpressed SNORD113-3; immunoprecipitation of HA-ADAR2
[4] = biological target: T1, EBF transcription factor 1 (EBF1), endogenous (human (endogenous in U251)) (UniProt Q9UH73); assay: co-IP; lysates of U251 cells, endogenous proteins; IP and IB with PHKA2 and EBF1 antibodies
T1 sequence: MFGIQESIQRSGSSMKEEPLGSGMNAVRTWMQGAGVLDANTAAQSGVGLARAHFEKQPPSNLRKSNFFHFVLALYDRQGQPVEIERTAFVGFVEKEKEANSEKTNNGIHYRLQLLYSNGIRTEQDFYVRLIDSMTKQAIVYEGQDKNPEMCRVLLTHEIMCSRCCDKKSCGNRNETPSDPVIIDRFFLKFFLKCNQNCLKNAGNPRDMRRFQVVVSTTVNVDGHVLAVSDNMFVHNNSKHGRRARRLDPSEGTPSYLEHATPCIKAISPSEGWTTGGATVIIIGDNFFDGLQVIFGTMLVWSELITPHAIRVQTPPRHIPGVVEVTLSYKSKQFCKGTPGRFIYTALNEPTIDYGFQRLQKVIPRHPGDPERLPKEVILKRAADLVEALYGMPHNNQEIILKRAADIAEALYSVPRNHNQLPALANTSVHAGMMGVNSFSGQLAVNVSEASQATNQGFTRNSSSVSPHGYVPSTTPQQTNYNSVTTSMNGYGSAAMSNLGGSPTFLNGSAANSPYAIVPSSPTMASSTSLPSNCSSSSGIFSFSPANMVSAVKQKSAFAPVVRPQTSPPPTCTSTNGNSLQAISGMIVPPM

[5] = biological target: T2, GST-EBF1 (in 293 T cells) (UniProt Q9UH73); assay: co-IP; lysates of 293 T cells transfected with FLAG-PHKA2 and GST-EBF1 plasmids; IP and IB with FLAG tag and GST tag antibodies
T2 sequence: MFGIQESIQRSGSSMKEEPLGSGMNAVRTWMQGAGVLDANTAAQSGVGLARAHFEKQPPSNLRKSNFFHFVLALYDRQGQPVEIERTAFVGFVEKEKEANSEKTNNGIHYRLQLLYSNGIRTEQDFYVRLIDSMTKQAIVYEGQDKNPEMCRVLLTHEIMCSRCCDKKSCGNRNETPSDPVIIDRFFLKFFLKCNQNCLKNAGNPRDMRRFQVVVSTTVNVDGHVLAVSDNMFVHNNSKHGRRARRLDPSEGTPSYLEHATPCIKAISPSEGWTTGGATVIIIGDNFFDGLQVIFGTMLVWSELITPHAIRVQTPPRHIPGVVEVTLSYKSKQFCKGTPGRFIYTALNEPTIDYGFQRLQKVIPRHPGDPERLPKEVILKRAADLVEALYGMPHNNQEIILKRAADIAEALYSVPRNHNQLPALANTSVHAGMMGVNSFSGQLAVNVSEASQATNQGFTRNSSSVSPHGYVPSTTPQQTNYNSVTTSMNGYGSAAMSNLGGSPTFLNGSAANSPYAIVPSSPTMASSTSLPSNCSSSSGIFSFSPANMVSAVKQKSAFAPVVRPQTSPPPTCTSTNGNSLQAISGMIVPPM

GST-EBF1, purified = biological target: T3, GST-EBF1, purified (UniProt Q9UH73); assay: pull-down; GST pull-down: purified FLAG-PHKA2 incubated overnight at 4 °C with purified GST-EBF1 bound to resin; eluate analysed by SDS-PAGE and western blot; both purified
T3 sequence: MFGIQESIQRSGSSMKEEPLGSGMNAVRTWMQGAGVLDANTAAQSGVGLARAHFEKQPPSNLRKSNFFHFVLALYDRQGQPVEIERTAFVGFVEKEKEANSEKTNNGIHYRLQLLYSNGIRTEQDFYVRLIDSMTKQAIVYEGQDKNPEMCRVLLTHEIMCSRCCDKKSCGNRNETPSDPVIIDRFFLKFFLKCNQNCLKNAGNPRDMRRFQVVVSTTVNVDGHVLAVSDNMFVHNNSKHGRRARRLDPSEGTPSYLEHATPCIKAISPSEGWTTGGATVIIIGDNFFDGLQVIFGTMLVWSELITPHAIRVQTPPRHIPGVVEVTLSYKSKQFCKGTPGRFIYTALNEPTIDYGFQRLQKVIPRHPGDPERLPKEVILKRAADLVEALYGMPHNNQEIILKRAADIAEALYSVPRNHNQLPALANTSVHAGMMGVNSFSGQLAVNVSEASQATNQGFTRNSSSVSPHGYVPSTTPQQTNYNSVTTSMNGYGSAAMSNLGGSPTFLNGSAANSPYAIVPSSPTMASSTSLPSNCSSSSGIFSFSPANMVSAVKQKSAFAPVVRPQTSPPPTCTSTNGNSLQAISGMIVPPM

Molecule: ADAR2 (FLAG-ADAR2 and HA-ADAR2 in U251 cells) (from UniProt P78563 1-741) (enzyme)
binding [1]: binds

Molecule: ADAR2 (FLAG-ADAR2 and HA-ADAR2 co-expressed in 293 T cells) (from UniProt P78563 1-741) (enzyme)
binding [2]: binds | binding [3]: binds

B2: FLAG-PHKA2 (in 293 T cells) (protein, UniProt P46019 1-1235)
chain: MRSRSNSGVRLDGYARLVQQTILCYQNPVTGLLSASHEQKDAWVRDNIYSILAVWGLGMAYRKNADRDEDKAKAYELEQNVVKLMRGLLQCMMRQVAKVEKFKHTQSTKDSLHAKYNTATCGTVVGDDQWGHLQVDATSLFLLFLAQMTASGLRIIFTLDEVAFIQNLVFYIEAAYKVADYGMWERGDKTNQGIPELNASSVGMAKAALEAIDELDLFGAHGGRKSVIHVLPDEVEHCQSILFSMLPRASTSKEIDAGLLSIISFPAFAVEDVNLVNVTKNEIISKLQGRYGCCRFLRDGYKTPREDPNRLHYDPAELKLFENIECEWPVFWTYFIIDGVFSGDAVQVQEYREALEGILIRGKNGIRLVPELYAVPPNKVDEEYKNPHTVDRVPMGKVPHLWGQSLYILSSLLAEGFLAAGEIDPLNRRFSTSVKPDVVVQVTVLAENNHIKDLLRKHGVNVQSIADIHPIQVQPGRILSHIYAKLGRNKNMNLSGRPYRHIGVLGTSKLYVIRNQIFTFTPQFTDQHHFYLALDNEMIVEMLRIELAYLCTCWRMTGRPTLTFPISRTMLTNDGSDIHSAVLSTIRKLEDGYFGGARVKLGNLSEFLTTSFYTYLTFLDPDCDEKLFDNASEGTFSPDSDSDLVGYLEDTCNQESQDELDHYINHLLQSTSLRSYLPPLCKNTEDRHVFSAIHSTRDILSVMAKAKGLEVPFVPMTLPTKVLSAHRKSLNLVDSPQPLLEKVPESDFQWPRDDHGDVDCEKLVEQLKDCSNLQDQADILYILYVIKGPSWDTNLSGQHGVTVQNLLGELYGKAGLNQEWGLIRYISGLLRKKVEVLAEACTDLLSHQKQLTVGLPPEPREKIISAPLPPEELTKLIYEASGQDISIAVLTQEIVVYLAMYVRAQPSLFVEMLRLRIGLIIQVMATELARSLNCSGEEASESLMNLSPFDMKNLLHHILSGKEFGVERSVRPIHSSTSSPTISIHEVGHTGVTKTERSGINRLRSEMKQMTRRFSADEQFFSVGQAASSSAHSSKSARSSTPSSPTGTSSSDSGGHHIGWGERQGQWLRRRRLDGAINRVPVGFYQRVWKILQKCHGLSIDGYVLPSSTTREMTPHEIKFAVHVESVLNRVPQPEYRQLLVEAIMVLTLLSDTEMTSIGGIIHVDQIVQMASQLFLQDQVSIGAMDTLEKDQATGICHFFYDSAPSGAYGTMTYLTRAVASYLQELLPNSGCQMQ
binding [5]: binds

The next lines start with the values.

binding [4]: binds
B1: Phosphorylase kinase regulatory subunit alpha 2 (PHKA2), endogenous (protein, UniProt P46019 1-1235)
chain: MRSRSNSGVRLDGYARLVQQTILCYQNPVTGLLSASHEQKDAWVRDNIYSILAVWGLGMAYRKNADRDEDKAKAYELEQNVVKLMRGLLQCMMRQVAKVEKFKHTQSTKDSLHAKYNTATCGTVVGDDQWGHLQVDATSLFLLFLAQMTASGLRIIFTLDEVAFIQNLVFYIEAAYKVADYGMWERGDKTNQGIPELNASSVGMAKAALEAIDELDLFGAHGGRKSVIHVLPDEVEHCQSILFSMLPRASTSKEIDAGLLSIISFPAFAVEDVNLVNVTKNEIISKLQGRYGCCRFLRDGYKTPREDPNRLHYDPAELKLFENIECEWPVFWTYFIIDGVFSGDAVQVQEYREALEGILIRGKNGIRLVPELYAVPPNKVDEEYKNPHTVDRVPMGKVPHLWGQSLYILSSLLAEGFLAAGEIDPLNRRFSTSVKPDVVVQVTVLAENNHIKDLLRKHGVNVQSIADIHPIQVQPGRILSHIYAKLGRNKNMNLSGRPYRHIGVLGTSKLYVIRNQIFTFTPQFTDQHHFYLALDNEMIVEMLRIELAYLCTCWRMTGRPTLTFPISRTMLTNDGSDIHSAVLSTIRKLEDGYFGGARVKLGNLSEFLTTSFYTYLTFLDPDCDEKLFDNASEGTFSPDSDSDLVGYLEDTCNQESQDELDHYINHLLQSTSLRSYLPPLCKNTEDRHVFSAIHSTRDILSVMAKAKGLEVPFVPMTLPTKVLSAHRKSLNLVDSPQPLLEKVPESDFQWPRDDHGDVDCEKLVEQLKDCSNLQDQADILYILYVIKGPSWDTNLSGQHGVTVQNLLGELYGKAGLNQEWGLIRYISGLLRKKVEVLAEACTDLLSHQKQLTVGLPPEPREKIISAPLPPEELTKLIYEASGQDISIAVLTQEIVVYLAMYVRAQPSLFVEMLRLRIGLIIQVMATELARSLNCSGEEASESLMNLSPFDMKNLLHHILSGKEFGVERSVRPIHSSTSSPTISIHEVGHTGVTKTERSGINRLRSEMKQMTRRFSADEQFFSVGQAASSSAHSSKSARSSTPSSPTGTSSSDSGGHHIGWGERQGQWLRRRRLDGAINRVPVGFYQRVWKILQKCHGLSIDGYVLPSSTTREMTPHEIKFAVHVESVLNRVPQPEYRQLLVEAIMVLTLLSDTEMTSIGGIIHVDQIVQMASQLFLQDQVSIGAMDTLEKDQATGICHFFYDSAPSGAYGTMTYLTRAVASYLQELLPNSGCQMQ

binding (GST-EBF1, purified): binds
B3: FLAG-PHKA2, purified (protein, UniProt P46019 1-1235)
chain: MRSRSNSGVRLDGYARLVQQTILCYQNPVTGLLSASHEQKDAWVRDNIYSILAVWGLGMAYRKNADRDEDKAKAYELEQNVVKLMRGLLQCMMRQVAKVEKFKHTQSTKDSLHAKYNTATCGTVVGDDQWGHLQVDATSLFLLFLAQMTASGLRIIFTLDEVAFIQNLVFYIEAAYKVADYGMWERGDKTNQGIPELNASSVGMAKAALEAIDELDLFGAHGGRKSVIHVLPDEVEHCQSILFSMLPRASTSKEIDAGLLSIISFPAFAVEDVNLVNVTKNEIISKLQGRYGCCRFLRDGYKTPREDPNRLHYDPAELKLFENIECEWPVFWTYFIIDGVFSGDAVQVQEYREALEGILIRGKNGIRLVPELYAVPPNKVDEEYKNPHTVDRVPMGKVPHLWGQSLYILSSLLAEGFLAAGEIDPLNRRFSTSVKPDVVVQVTVLAENNHIKDLLRKHGVNVQSIADIHPIQVQPGRILSHIYAKLGRNKNMNLSGRPYRHIGVLGTSKLYVIRNQIFTFTPQFTDQHHFYLALDNEMIVEMLRIELAYLCTCWRMTGRPTLTFPISRTMLTNDGSDIHSAVLSTIRKLEDGYFGGARVKLGNLSEFLTTSFYTYLTFLDPDCDEKLFDNASEGTFSPDSDSDLVGYLEDTCNQESQDELDHYINHLLQSTSLRSYLPPLCKNTEDRHVFSAIHSTRDILSVMAKAKGLEVPFVPMTLPTKVLSAHRKSLNLVDSPQPLLEKVPESDFQWPRDDHGDVDCEKLVEQLKDCSNLQDQADILYILYVIKGPSWDTNLSGQHGVTVQNLLGELYGKAGLNQEWGLIRYISGLLRKKVEVLAEACTDLLSHQKQLTVGLPPEPREKIISAPLPPEELTKLIYEASGQDISIAVLTQEIVVYLAMYVRAQPSLFVEMLRLRIGLIIQVMATELARSLNCSGEEASESLMNLSPFDMKNLLHHILSGKEFGVERSVRPIHSSTSSPTISIHEVGHTGVTKTERSGINRLRSEMKQMTRRFSADEQFFSVGQAASSSAHSSKSARSSTPSSPTGTSSSDSGGHHIGWGERQGQWLRRRRLDGAINRVPVGFYQRVWKILQKCHGLSIDGYVLPSSTTREMTPHEIKFAVHVESVLNRVPQPEYRQLLVEAIMVLTLLSDTEMTSIGGIIHVDQIVQMASQLFLQDQVSIGAMDTLEKDQATGICHFFYDSAPSGAYGTMTYLTRAVASYLQELLPNSGCQMQ
